Experimental data published in the supplement of paper PMC4604168 (melanoma cell lines).
The other results are listed elsewhere or left out. Single values are uncertain, as repeats are few or missing.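 Imaging used 1,536-well plates; nuclei positive for cleaved PARP by antibody were divided by total DNA-stained nuclei to yield the apoptosis fraction. Doses for screening kept most cells viable, and cell lines differ markedly in resting and induced cleaved-PARP levels.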

Legend:
Assay in all cases: cleaved PARP positive nuclei fraction relative to DMSO control; melanoma cells; higher = more apoptosis
Settings in all cases: library dose: low library concentration; 72 h
CBRC034 = tested on: CBRC034 (line from a melanoma biopsy)
COLO792 = tested on: COLO792
COLO800 = tested on: COLO800
COLO829 = tested on: COLO829
G361 = tested on: G361
IPC-298 = tested on: IPC-298
IST-MEL1 = tested on: IST-MEL1
LB2518-MEL = tested on: LB2518-MEL
LOXIMVI = tested on: LOXIMVI
MEL-HO = tested on: MEL-HO
MZ2-MEL = tested on: MZ2-MEL
MeWo = tested on: MeWo
RPMI7951 = tested on: RPMI7951
RVH-421 = tested on: RVH-421
SkMel28 = tested on: SkMel28
SkMel2 = tested on: SkMel2
SkMel30 = tested on: SkMel30
UACC62 = tested on: UACC62

Row | Structure (SMILES) | cleaved PARP positive nuclei fraction (CBRC034) [%] | cleaved PARP positive nuclei fraction (COLO792) [%] | cleaved PARP positive nuclei fraction (COLO800) [%] | cleaved PARP positive nuclei fraction (COLO829) [%] | cleaved PARP positive nuclei fraction (G361) [%] | cleaved PARP positive nuclei fraction (IPC-298) [%] | cleaved PARP positive nuclei fraction (IST-MEL1) [%] | cleaved PARP positive nuclei fraction (LB2518-MEL) [%] | cleaved PARP positive nuclei fraction (LOXIMVI) [%] | cleaved PARP positive nuclei fraction (MEL-HO) [%] | cleaved PARP positive nuclei fraction (MZ2-MEL) [%] | cleaved PARP positive nuclei fraction (MeWo) [%] | cleaved PARP positive nuclei fraction (RPMI7951) [%] | cleaved PARP positive nuclei fraction (RVH-421) [%] | cleaved PARP positive nuclei fraction (SkMel28) [%] | cleaved PARP positive nuclei fraction (SkMel2) [%] | cleaved PARP positive nuclei fraction (SkMel30) [%] | cleaved PARP positive nuclei fraction (UACC62) [%]
1 | CCCCCCCCCCCCCCCCCCOP(=O)([O-])OC1CC[N+](C)(C)CC1 [Perifosine] + CC(=O)O[C@@]12CO[C@@H]1C[C@H](O)[C@@]1(C)C(=O)[C@H](O)C3=C(C)[C@@H](OC(=O)[C@H](O)[C@@H](NC(=O)OC(C)(C)C)c4ccccc4)C[C@@](O)([C@@H](OC(=O)c4ccccc4)[C@H]21)C3(C)C [Docetaxel] (first compound 0.4 µM, partner dose 0.0001 µM) | 65.5 | 631 | 239 | 369 | 321 | 119 | 82.8 | 146 | 56.6 | 78.9 | 578 | 532 | 607 | 129 | 226 | 468 | 407 | 368
2 | Cc1cc(Nc2cc(N3CCN(C)CC3)nc(Sc3ccc(NC(=O)C4CC4)cc3)n2)n[nH]1 [Tozasertib] + CC[C@]1(O)C[C@H]2CN(CCc3c([nH]c4ccccc34)[C@@](C(=O)OC)(c3cc4c(cc3OC)N(C=O)[C@H]3[C@@](O)(C(=O)OC)[C@H](OC(C)=O)[C@]5(CC)C=CCN6CC[C@]43[C@@H]65)C2)C1 [vincristine] (first compound 0.006 µM, partner dose 0.0001 µM) | 122 | 87.5 | 271 | 135 | 133 | 132 | 123 | 92.3 | 133 | 72.9 | 200 | 99.4 | 92.8 | 127 | 82.8 | 174 | 242 | 189
3 | Cc1ccc(Nc2nccc(N(C)c3ccc4c(C)n(C)nc4c3)n2)cc1S(N)(=O)=O [Pazopanib] + COc1ccc(Cl)c(Nc2nc3ccccc3nc2NS(=O)(=O)c2cccc(NC(=O)C(C)(C)N)c2)c1 [XL147] (first compound 0.4 µM, partner dose 0.8 µM) | 86 | 94 | 80.8 | 67.8 | 101 | 207 | 32.2 | 53.2 | 158 | 73.5 | 141 | 142 | 141 | 73.1 | 82.4 | 104 | 157 | 201
4 | Cc1cn(-c2cc(NC(=O)c3ccc(C)c(Nc4nccc(-c5cccnc5)n4)c3)cc(C(F)(F)F)c2)cn1 [nilotinib] + COc1ccc(C2=N[C@@H](c3ccc(Cl)cc3)[C@@H](c3ccc(Cl)cc3)N2C(=O)N2CCNC(=O)C2)c(OC(C)C)c1 [Nutlin-3] (first compound 0.2 µM, partner dose 0.1 µM) | 102 | 64.9 | 119 | 40.4 | 159 | 94.6 | 57.8 | 55.9 | 197 | 110 | 120 | 35.1 | 111 | 64.8 | 267 | 42.8 | 95.8 | 217
5 | COc1cc([C@@H]2c3cc4c(cc3[C@@H](O[C@@H]3O[C@@H]5CO[C@@H](C)O[C@H]5[C@H](O)[C@H]3O)[C@H]3COC(=O)[C@H]23)OCO4)cc(OC)c1O [etoposide] + O=C(Nc1cc(C(F)(F)F)cc(C(F)(F)F)c1)c1cc(Cl)ccc1O [IMD0354] (first compound 0.02 µM, partner dose 0.016 µM) | 44.3 | 164 | 68.2 | 66.2 | 98.2 | 60.8 | 121 | 55.1 | 365 | 28.7 | 37.5 | 104 | 164 | 126 | 294 | 98.4 | 215 | 154
6 | N#CC[C@H](C1CCCC1)n1cc(-c2ncnc3[nH]ccc23)cn1 [ruxolitinib] + Clc1ccc(Nc2nnc(Cc3ccncc3)c3ccccc23)cc1 [vatalanib] (first compound 1 µM, partner dose 2 µM) | 51 | 71.7 | 44.6 | 76.9 | 61.4 | 89.2 | 32.9 | 38.3 | 77.7 | 86.6 | 101 | 175 | 49.5 | 29.1 | 166 | 101 | 58.6 | 109
7 | O=C(/C=C/c1cccnc1)NCCCCC1CCN(C(=O)c2ccccc2)CC1 + Nc1cccc2c1CN(C1CCC(=O)NC1=O)C2=O [lenalidomide] (first compound 0.01 µM, partner dose 1 µM) | 1010 | 689 | 445 | 344 | 2070 | 294 | 122 | 121 | 160 | 255 | 449 | 66.5 | 47.8 | 147 | 75.3 | 1980 | 124 | 142
8 | COc1cc([C@@H]2c3cc4c(cc3[C@@H](O[C@@H]3O[C@@H]5CO[C@@H](C)O[C@H]5[C@H](O)[C@H]3O)[C@H]3COC(=O)[C@H]23)OCO4)cc(OC)c1O [etoposide] + O=C(O)c1ccc2c(c1)nc(Nc1cccc(Cl)c1)c1ccncc12 [CX4945] (first compound 0.02 µM, partner dose 0.4 µM) | 26.8 | 77.6 | 65.7 | 93.3 | 164 | 99.6 | 117 | 118 | 47.9 | 94.9 | 77.9 | 36 | 45.7 | 70.1 | 83.3 | 75.2 | 165 | 70.2
9 | Cc1cc(Nc2cc(N3CCN(C)CC3)nc(Sc3ccc(NC(=O)C4CC4)cc3)n2)n[nH]1 [Tozasertib] + O=C(/C=C/c1cccnc1)NCCCCC1CCN(C(=O)c2ccccc2)CC1 [FK866] (first compound 0.006 µM, partner dose 0.01 µM) | 2850 | 341 | 102 | 165 | 1230 | 601 | 172 | 51.5 | 50.6 | 296 | 407 | 96.6 | 170 | 89 | 115 | 660 | 186 | 248
10 | O=C(/C=C/c1cccnc1)NCCCCC1CCN(C(=O)c2ccccc2)CC1 + Cn1sc(=O)n(Cc2ccccc2)c1=O [TDZD-8] (first compound 0.01 µM, partner dose 0.4 µM) | 2140 | 400 | 358 | 256 | 3080 | 210 | 86 | 299 | 95.6 | 84.1 | 336 | 119 | 228 | 135 | 75.6 | 2290 | 64.3 | 149
11 | CCCCCCCCCCCCCCCCCCOP(=O)([O-])OC1CC[N+](C)(C)CC1 [Perifosine] + CN1CCN(c2ccc3nc(-c4c(N)c5c(F)cccc5[nH]c4=O)[nH]c3c2)CC1 [Dovitinib] (first compound 0.4 µM, partner dose 0.1 µM) | 82.5 | 66 | 83.5 | 174 | 274 | 44.1 | 124 | 53.9 | 207 | 63.3 | 34.3 | 41.8 | 453 | 59.6 | 86.6 | 62.4 | 134 | 30.1
12 | CCCCCCCCCCCCCCCCCCOP(=O)([O-])OC1CC[N+](C)(C)CC1 [Perifosine] + CS(=O)(=O)CCNCc1ccc(-c2ccc3ncnc(Nc4ccc(OCc5cccc(F)c5)c(Cl)c4)c3c2)o1 [lapatinib] (first compound 0.4 µM, partner dose 0.8 µM) | 47.9 | 114 | 73.6 | 115 | 45 | 42.1 | 49.6 | 191 | 91.3 | 55.1 | 97 | 93.5 | 69.9 | 53.7 | 38.2 | 30.8 | 70 | 105
13 | O=C(Nc1cc(C(F)(F)F)cc(C(F)(F)F)c1)c1cc(Cl)ccc1O + O=C(O)c1ccc2c(c1)nc(Nc1cccc(Cl)c1)c1ccncc12 [CX4945] (first compound 0.016 µM, partner dose 0.4 µM) | 119 | 149 | 51.7 | 108 | 143 | 43.8 | 108 | 103 | 67.7 | 85.9 | 139 | 63.4 | 91.6 | 113 | 144 | 64.3 | 22.9 | 120
14 | COc1cc([C@@H]2c3cc4c(cc3[C@@H](O[C@@H]3O[C@@H]5CO[C@@H](C)O[C@H]5[C@H](O)[C@H]3O)[C@H]3COC(=O)[C@H]23)OCO4)cc(OC)c1O [etoposide] + Cc1cc(Nc2cc(N3CCN(C)CC3)nc(/C=C/c3ccccc3)n2)n[nH]1 [ENMD2076] (first compound 0.02 µM, partner dose 0.04 µM) | 21.6 | 103 | 84 | 68.3 | 175 | 85 | 194 | 56 | 80.6 | 103 | 32.8 | 96.4 | 62.2 | 165 | 89.1 | 97.2 | 25.1 | 86.1
15 | O=C(/C=C/c1cccnc1)NCCCCC1CCN(C(=O)c2ccccc2)CC1 + OCc1c[nH]c2ccccc12 [Indole-3-carbinol] (first compound 0.01 µM, partner dose 0.8 µM) | 953 | 129 | 142 | 92.6 | 1550 | 260 | 75 | 97.9 | 94.3 | 284 | 104 | 36.4 | 286 | 135 | 78 | 593 | 85.2 | 129
16 | O=C(Nc1cc(C(F)(F)F)cc(C(F)(F)F)c1)c1cc(Cl)ccc1O + Cc1nc(Nc2ncc(C(=O)Nc3c(C)cccc3Cl)s2)cc(N2CCN(CCO)CC2)n1 [dasatanib] (first compound 0.016 µM, partner dose 0.004 µM) | 51.9 | 76.4 | 79.5 | 132 | 135 | 88.3 | 20.9 | 101 | 25.6 | 67.6 | 96.5 | 130 | 98.6 | 226 | 121 | 62.5 | 68 | 237

Full records from above. Order of values: cleaved PARP positive nuclei fraction (CBRC034) [%] | cleaved PARP positive nuclei fraction (COLO792) [%] | cleaved PARP positive nuclei fraction (COLO800) [%] | cleaved PARP positive nuclei fraction (COLO829) [%] | cleaved PARP positive nuclei fraction (G361) [%] | cleaved PARP positive nuclei fraction (IPC-298) [%] | cleaved PARP positive nuclei fraction (IST-MEL1) [%] | cleaved PARP positive nuclei fraction (LB2518-MEL) [%] | cleaved PARP positive nuclei fraction (LOXIMVI) [%] | cleaved PARP positive nuclei fraction (MEL-HO) [%] | cleaved PARP positive nuclei fraction (MZ2-MEL) [%] | cleaved PARP positive nuclei fraction (MeWo) [%] | cleaved PARP positive nuclei fraction (RPMI7951) [%] | cleaved PARP positive nuclei fraction (RVH-421) [%] | cleaved PARP positive nuclei fraction (SkMel28) [%] | cleaved PARP positive nuclei fraction (SkMel2) [%] | cleaved PARP positive nuclei fraction (SkMel30) [%] | cleaved PARP positive nuclei fraction (UACC62) [%]
O=C(/C=C/c1cccnc1)NCCCCC1CCN(C(=O)c2ccccc2)CC1 + OCc1c[nH]c2ccccc12 [Indole-3-carbinol] (first compound 0.01 µM, partner dose 0.8 µM) as listed: 953 | 129 | 142 | 92.6 | 1550 | 260 | 75 | 97.9 | 94.3 | 284 | 104 | 36.4 | 286 | 135 | 78 | 593 | 85.2 | 129
COc1cc([C@@H]2c3cc4c(cc3[C@@H](O[C@@H]3O[C@@H]5CO[C@@H](C)O[C@H]5[C@H](O)[C@H]3O)[C@H]3COC(=O)[C@H]23)OCO4)cc(OC)c1O [etoposide] + Cc1cc(Nc2cc(N3CCN(C)CC3)nc(/C=C/c3ccccc3)n2)n[nH]1 [ENMD2076] (first compound 0.02 µM, partner dose 0.04 µM) as listed: 21.6 | 103 | 84 | 68.3 | 175 | 85 | 194 | 56 | 80.6 | 103 | 32.8 | 96.4 | 62.2 | 165 | 89.1 | 97.2 | 25.1 | 86.1
